Measurements from the supplement of paper PMC4604168 (melanoma cell lines).
The other results are listed elsewhere or left out. Repeats are few or missing, and single values can be far off.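 Imaging used 1,536-well plates; nuclei positive for cleaved PARP by antibody were divided by total DNA-stained nuclei to yield the apoptosis fraction. Doses for screening kept most cells viable, and cell lines differ markedly in resting and induced cleaved-PARP levels.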

What follows are compounds tested on WM115 (assay: cleaved PARP positive nuclei fraction relative to DMSO control; melanoma cells; higher = more apoptosis). Settings: library dose: low library concentration; 72 h.

| SMILES | cleaved PARP positive nuclei fraction [%] |
| --- | --- |
| C=CCNC1=C2C[C@@H](C)C[C@H](OC)[C@H](O)[C@@H](C)/C=C(\C)[C@H](OC(N)=O)[C@@H](OC)/C=C\C=C(/C)C(=O)NC(=CC1=O)C2=O [Tanespimycin] + Cn1c(Nc2ccc(C(F)(F)F)cc2)nc2cc(Oc3ccnc(-c4ncc(C(F)(F)F)[nH]4)c3)ccc21 [CHIR265] (first compound 0.002 µM, partner dose 0.08 µM) | 554 |
| Clc1ccc(Nc2nnc(Cc3ccncc3)c3ccccc23)cc1 [vatalanib] + CC(C)(C)c1cnc(CSc2cnc(NC(=O)C3CCNCC3)s2)o1 [SNS-032] (first compound 2 µM, partner dose 0.01 µM) | 146 |
| C[C@]1(c2nc3c(C(N)=O)cccc3[nH]2)CCCN1 [Veliparib] + CC(C)(C)c1cnc(CSc2cnc(NC(=O)C3CCNCC3)s2)o1 [SNS-032] (first compound 1.4 µM, partner dose 0.01 µM) | 101 |
| C#Cc1cccc(Nc2ncnc3cc(OCCOC)c(OCCOC)cc23)c1 [erlotinib] + CN(C)S(=O)(=O)c1ccc2c(c1)/C(=C/c1cc3c([nH]1)CCCC3)C(=O)N2 [SU6656] (first compound 0.8 µM, partner dose 0.4 µM) | 204 |
| Cc1ccc(NC(=O)c2cccc(N(C)C)c2)cc1NC(=O)c1ccc(O)cc1 + Oc1cc(-c2nc(-c3ccccc3)[nH]c2-c2ccncc2)ccc1Cl [L779450] (first compound 2 µM, partner dose 0.2 µM) | 77.8 |
